Measured values taken from paper PMC9367985.
No constants are given. Whether binding was seen depends on the method and setting. Binding seen in cells or lysates may run through a third protein. Tags and fused reporters may be left off the sequences shown.

Target: A315T^247-414-GFP (C-terminally GFP-tagged truncated TDP-43, residues 247-414, with the ALS-associated A315T mutation) (human) (UniProt Q13148)
Test: co-IP; HEK293T cells transfected with LUBAC subunits and GFP or A315T^247-414-GFP; lysis in 50 mM Tris-HCl pH 7.5, 150 mM NaCl, 1% Triton X-100; anti-GFP immunoprecipitates on Protein G agarose at 4 °C; immunoblotting

binding: no binding
B1: SHARPIN expressed alone (FLAG-tagged LUBAC subunit) (protein, UniProt Q9H0F6 1-387)
chain: MAPPAGGAAAAASDLGSAAVLLAVHAAVRPLGAGPDAEAQLRRLQLSADPERPGRFRLELLGAGPGAVNLEWPLESVSYTIRGPTQHELQPPPGGPGTLSLHFLNPQEAQRWAVLVRGATVEGQNGSKSNSPPALGPEACPVSLPSPPEASTLKGPPPEADLPRSPGNLTEREELAGSLARAIAGGDEKGAAQVAAVLAQHRVALSVQLQEACFPPGPIRLQVTLEDAASAASAASSAHVALQVHPHCTVAALQEQVFSELGFPPAVQRWVIGRCLCVPERSLASYGVRQDGDPAFLYLLSAPREAPATGPSPQHPQKMDGELGRLFPPSLGLPPGPQPAASSLPSPLQPSWSCPSCTFINAPDRPGCEMCSTQRPCTWDPLAAAST
